Measured data: PubChem BioAssay AID1508588 (Peter MacCallum Cancer Centre, 2020)
In all, the deposit lists about 18,000 reagents; below is a random part of them. In the full data, 790 (4.4%) are marked active. 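Calls rest on a combination of fold-change classes in drug and vehicle arms, not all shown here.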 Reagent sequences are not shown.

Aim: 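Knock-downs boosting vemurafenib effects on melanoma cell growth or lactate release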 (primary screen)
Cell system: human WM266.4 melanoma cells (BRAF V600 mutant)
Reagents: siRNA pool against human genes, 40 nM
Duration: 96 h from transfection to read-out
Challenge: vemurafenib 300 nM (about IC25), added 48 h after transfection, for 48 h; comparison arm got DMSO vehicle only
Detection: 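Ratios to non-targeting siRNA for cell gain, counted as DAPI nuclei after minus before drug and averaged over two replicates, and for absorbance-read medium lactate per cell; both binned into fold-change classes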
Reading the numbers: cell gain with vemurafenib: higher = more cell gain than with non-targeting siRNA; lactate per cell with vemurafenib: higher = more lactate made per cell
Call rule: 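a knock-down counts as enhancing when its fold-change classes with vehicle and with vemurafenib, taken together, show a stronger drug effect on cell gain or lactate per cell; exact class pairs not stated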
Calls: active = enhances vemurafenib effect; inactive = no enhancement seen

gene symbol	cell gain with vemurafenib	lactate per cell with vemurafenib	activity call
PNO1	0.3	0.34	active
RPS3A	-0.02	1.67	inactive
NLRP8	0.89	0.53	inactive
SMPDL3A	0.9	0.6	inactive
ZMYM2	0.79	1.03	inactive
MRM3	0.94	0.98	inactive
PDP2	0.5	0.36	inactive
VPS37B	0.66	1.73	inactive
CCDC144NL	0.77	1.27	inactive
CPSF4	0.75	1	inactive
NKX2-2	0.67	0.61	inactive
CD177	0.66	0.38	inactive
PCED1B	0.24	1.62	inactive

Part of the list above, showing only “cell gain with vemurafenib”:
ZMYM2	0.79
MRM3	0.94
PDP2	0.5

The results go on:
gene symbol	cell gain with vemurafenib	lactate per cell with vemurafenib	activity call
RNF11	0.13	0.44	active
TBCA	0.52	1.22	inactive
FLRT3	0.93	0.7	inactive
SMARCC2	0.96	0.44	inactive
FOLR3	0.59	0.87	inactive
CLN3	0.39	1.9	inactive
KCNB1	0.57	0.2	inactive
RNF186	0.93	0.86	inactive
STRN4	0.86	0.68	inactive
RASSF9	0.76	0.3	inactive
EIF3E	0.13	1.09	inactive
AP4E1	0.64	1.08	inactive
SESN1	0.66	0.93	inactive
WNT3A	0.51	0.78	inactive
MOB1B	0.6	0.51	inactive
ISG20	0.81	1.01	inactive
HLF	0.19	0.67	active
MS4A3	0.65	0.9	inactive
PITX1	0.25	0.67	active
FAM107A	0.26	0.48	active
CCDC157	0.07	1.24	inactive
